Experimental data published in PubChem BioAssay AID493014 (National Center for Advancing Translational Sciences (NCATS), 2011).
The whole screen tested about 340,000 compounds, of which about 170 (0.05%) were called active. The inconclusive results got no clear call from the source; some entries with a clear call stand among them for comparison. Calls come from the whole dose curve; as a rule, active = well fitted inhibition curve with a large enough effect in the signal ratio, with a control signal flat (not every such curve was filed as active); inconclusive = small, poorly fitted or top-dose-only effect, or effect the other way, or a change in a side signal; inactive = flat fitted curve, though single readings scatter; the % refers to the signal ratio. A potency beside an inconclusive call is a rough fit, not a confirmed value.

Assay: qHTS Assay to Find Inhibitors of Chronic Active B-Cell Receptor Signaling;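 for activity change, negative = inhibition: plate controls were basal doxycycline-induced cells for no effect and cells given 10 µM MG132 for full effect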
Settings: ABC-DLBCL IkBa-CBG/CBR reporter, luminescence ratio (green luciferase fused to IkBa over red control in TMD8 lymphoma cells), 4 h
Method in brief: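 TMD8 ABC-DLBCL cells carrying doxycycline-inducible green luciferase fused to IkappaBalpha plus unfused red luciferase were exposed to compounds (up to 46 uM) for 4 hrs at 37C. Activity came from the overlap-corrected green/red luminescence ratio.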

[1] = activity change, negative = inhibition: at 46.1 µM (top of the series)
Potency is the fitted concentration of half-maximal effect.

O=C(Oc1ccccc1C(=O)Oc1ccccc1)c1cccnc1
Potency [1]: inconclusive: 20 µM [falling, partial curve, poor fit]

CC(C)C(=O)N1CCN(c2nc3ccc(Cl)cc3s2)CC1
activity change, negative = inhibition [1]: inactive

C#CCOCCOCCOCCNc1nc(N2CCN(C(=O)CCCCCCCCCCNC(=O)[C@H]([C@@H](C)CC)n3cc(CCCCN=C(N)N)nn3)CC2)nc(N2CCN(C(=O)CCCCCCCCCCNC(=O)[C@H](CO)n3cc(CCCSC)nn3)CC2)n1
activity change, negative = inhibition [1]: inconclusive: 14.5%

Cn1c(=O)oc2cc(S(=O)(=O)NCc3ccncc3)ccc21
activity change, negative = inhibition [1]: inconclusive: -13%

CCOc1cc(C(=S)N2CCOCC2)ccc1OS(=O)(=O)c1ccccc1
activity change, negative = inhibition [1]: inactive

Cn1c(=O)c2c(nc(Cc3ccccc3)n2C)n(C)c1=O
Potency [1]: inconclusive: 1.26 µM [rising, full curve, poor fit]

COc1nc(N2CCCCCC2)nc(N2CCCCCC2)n1
Potency [1]: inconclusive: 20.6 µM [falling, single point]

Cc1noc(C)c1CSCC(=O)OCc1nnc(-c2ccc([N+](=O)[O-])cc2)o1
activity change, negative = inhibition [1]: inconclusive: 0.621%

Cc1ncc([N+](=O)[O-])n1CCOC(=O)NC(NCc1ccccc1)C(Cl)(Cl)Cl (stereo unspecified)
activity change, negative = inhibition [1]: inconclusive: -0.178%

COC(=O)C1=C(C)N(Cc2ccccc2)C(=NCC(C)C)N[C@H]1c1ccccc1
activity change, negative = inhibition [1]: inconclusive: -8.47% | activity change, negative = inhibition (at 46.1 µM (top of the series)): inactive: -12.9%

C/C(N)=C(/C#N)C(=O)COC(=O)c1ccc(C)c(S(=O)(=O)N2CCCCC2)c1
activity change, negative = inhibition [1]: inconclusive: -14.2%

CCCOc1cccc(-c2cc(C(=O)N/N=C/c3ccccn3)c3ccccc3n2)c1
activity change, negative = inhibition [1]: inconclusive: -6.6%

CCOc1ccccc1OCCCC(=O)Nc1ccc(OC)nc1
activity change, negative = inhibition [1]: inconclusive: 8.29%

CC(Sc1nnc(COc2ccc([N+](=O)[O-])cc2)n1-c1ccccc1)C(=O)O (stereo unspecified)
activity change, negative = inhibition [1]: inconclusive: -7.16%

COc1ccc(C(=O)NCCc2nnc(SCC(=O)Nc3ccccc3)n2C)cc1
activity change, negative = inhibition [1]: inconclusive: 3.22%

COc1cc(C(=O)N2CCc3ccccc32)cc(OC)c1OC
activity change, negative = inhibition [1]: inactive

c1ccc(N2CCN(Cc3nc4ccccc4[nH]3)CC2)nc1
activity change, negative = inhibition [1]: inconclusive: 8.56%

O=C(O)CN1C(=O)/C(=C\C(Br)=C\c2ccccc2)SC1=S
activity change, negative = inhibition [1]: inactive

Cc1cc(C)cc(NC(=O)C2CCN(S(=O)(=O)c3ccc4c(c3)NC(=O)C(C)S4)CC2)c1 (stereo unspecified)
activity change, negative = inhibition [1]: inconclusive: 13.8%

CC1=C(C(=O)Nc2ccc([N+](=O)[O-])cc2)C(c2cccc(C(F)(F)F)c2)NC(=S)N1c1ccccc1 (stereo unspecified)
activity change, negative = inhibition [1]: inconclusive: -10.3%

COCc1nnc(NC(=O)CCCCCN2C(=O)c3ccccc3C2=O)s1
Potency [1]: inconclusive: 1.16 µM [rising, full curve, poor fit]

Cc1ccc(-c2nn3c(C)nnc3c3ccccc23)cc1S(=O)(=O)N1CCN(CCO)CC1
activity change, negative = inhibition [1]: inconclusive: -0.266%

CN(Cc1cnccn1)Cc1ccccc1OCC(O)CN1CCc2ccccc2C1 (stereo unspecified)
activity change, negative = inhibition [1]: inactive

Cc1ccc(N=C/C(C(=O)C(F)(F)F)=C(\O)c2ccco2)cc1Cl
activity change, negative = inhibition [1]: inconclusive: 10.5%

CC1CCN(CC(=O)Nc2ccccc2-c2ccccc2)CC1
activity change, negative = inhibition [1]: inactive

CN(CC(=O)Nc1ccccc1Br)C(=O)CCCSc1nc2ccccc2[nH]1
activity change, negative = inhibition [1]: inconclusive: 14.3%

O=C1c2ccccc2C(=O)c2[nH]cnc21
activity change, negative = inhibition [1]: inconclusive: -0.627%

CC(=O)C1=C(O)C(=O)N(CCc2c[nH]c3ccccc23)C1c1ccccc1 (stereo unspecified)
activity change, negative = inhibition [1]: inactive

COC(=O)CNC(=O)c1cccc(Cl)c1
activity change, negative = inhibition [1]: inactive

CC(C)Cn1c(=O)c(CCC(=O)Nc2ccc(N3CCOCC3)cc2)nc2cc(Cl)ccc21
activity change, negative = inhibition [1]: inconclusive: 1.52%

COC(=O)C1=CNC=C(C(=O)OC)C1c1ccc(C(=O)OC)cc1
Potency [1]: inconclusive: 14.6 µM [falling, partial curve, poor fit]

Cc1ccnc(NC(=O)c2ccc(Cl)s2)c1
Potency [1]: inconclusive: 22.4 µM [falling, single point]

Cc1ccc2nc(N3CCCCC3)c(C=O)c(=O)n2c1
activity change, negative = inhibition [1]: inconclusive: 0.109%

COC(=O)c1ccc(CSc2nc(C(F)(F)F)c3c(c2C#N)CCC3)o1
Potency [1]: inconclusive: 15.8 µM [activator, single point]

O=C(NNC(=O)C1C2CCC(C2)C1C(=O)O)c1ccc(Cl)cc1 (stereo unspecified)
activity change, negative = inhibition [1]: inconclusive: -9.4%

O=C(NCCn1cc(SCc2ccc(F)cc2)c2ccccc21)c1c(F)cccc1F
Potency [1]: inconclusive: 14.6 µM [falling, partial curve, poor fit]

COC(=O)C1C(c2ccccc2)C(C(=O)OCc2ccco2)C1c1ccccc1 (stereo unspecified)
activity change, negative = inhibition [1]: inconclusive: 2.32%

CC(OC(=O)CCCSc1nc2ccccc2s1)C(=O)NC(N)=O (stereo unspecified)
activity change, negative = inhibition [1]: inconclusive: 20.4%

O=C(CNc1cccc(F)c1)Nc1cccc(S(=O)(=O)N2CCCCC2)c1
activity change, negative = inhibition [1]: inconclusive: -0.463%

Cc1ccc(Nc2nc(N)nc(CSc3ncccn3)n2)cc1
activity change, negative = inhibition [1]: inconclusive: -25.8%

COc1cc(C(=O)NC2CCCNC2)cc(OC)c1OC (stereo unspecified)
Potency [1]: inconclusive: 3.16 µM [falling, full curve]

Cc1cc(C(=O)NCCc2ccc(Cl)cc2)c(C)o1
activity change, negative = inhibition [1]: inconclusive: -11.6%

COCCn1c(SC(C)C(=O)Nc2ncc(Cl)cc2Cl)nc2ccccc21 (stereo unspecified)
activity change, negative = inhibition [1]: inactive

O=C(NCCS(=O)(=O)N1CCN(c2ccc(F)cc2)CC1)C12CC3CC(CC(C3)C1)C2
activity change, negative = inhibition [1]: inconclusive: 0.0561%

CCN(CCCNC(=O)C1CCN(S(=O)(=O)c2cnc[nH]2)CC1)c1ccccc1
activity change, negative = inhibition [1]: inconclusive: 23.6%

FC(F)(F)c1nnc(-c2ccccc2)nc1Sc1ccc(Cl)cc1
activity change, negative = inhibition [1]: inactive

COc1ccccc1-n1cc(-c2ccc(Br)cc2)[nH]c1=S
activity change, negative = inhibition [1]: inconclusive: -28.9%

CC(C)N1CCc2c(sc(NC(=O)Cc3ccccc3)c2C(N)=O)C1
Potency [1]: inconclusive: 0.794 µM [falling, full curve, poor fit]

CC1CCN(C2=NC(=O)/C(=C/c3cccc(O)c3)S2)CC1
activity change, negative = inhibition [1]: inconclusive: -15.5%

Nc1nc(N)nc(-c2ccc(Cl)c(Cl)c2)n1
activity change, negative = inhibition [1]: inconclusive: 22.5%

Cc1cc(Oc2ccc(Cl)cc2)nc(-c2ccccc2O)n1
activity change, negative = inhibition [1]: inconclusive: 13.5%

CCN1C(=O)c2cccc3c(NC(=O)c4ccc(S(=O)(=O)N5CCOCC5)cc4)ccc1c23
Potency [1]: inconclusive: 29.1 µM [falling, single point]

CCCC[C@]12Cc3ccccc3C(O1)c1c(c3ccccc3oc1=O)O2
activity change, negative = inhibition [1]: inactive: -5.32% [at 9.22 µM]

CCc1cc(C)cc(OCCNC(=O)c2cncc(Br)c2)c1
Potency [1]: inconclusive: 29.1 µM [rising, single point]

COc1ccc(C(=O)N[C@H](C(=O)Nc2sccc2C(N)=O)C(C)C)cc1
activity change, negative = inhibition [1]: inactive

COC(=O)Cn1c(CN2CCN(C(=O)c3ccco3)CC2)nc2c1c(=O)n(C)c(=O)n2C
activity change, negative = inhibition [1]: inactive

O=C(CN(C(=O)CCC(=O)Nc1ccccn1)c1ccc(F)cc1)NCc1ccco1
activity change, negative = inhibition [1]: inconclusive: -10%

CCOC(=O)C1CCCN(C(=O)c2cn(CC)c3ccc(S(=O)(=O)N(C)C)cc3c2=O)C1 (stereo unspecified)
activity change, negative = inhibition [1]: inconclusive: 3.89%

Cc1c(/C=C/C(=O)c2ccc(O)cc2)cnn1C
Potency [1]: inconclusive: 23.1 µM [falling, single point]

Cc1nn(S(=O)(=O)c2ccc(F)cc2)c(C)c1S(=O)(=O)N1CCOCC1
activity change, negative = inhibition [1]: inactive

CN(C)c1ccc(N=Cc2cccn2C)cc1
Potency [1]: inconclusive: 11.2 µM [falling, partial curve]

Cc1noc(C)c1CSCC(=O)N(C)CC(=O)Nc1cccc(F)c1
activity change, negative = inhibition [1]: inactive

COc1cc(NC(=O)c2ccc(CNc3c(N4CCCC4)c(=O)c3=O)cc2)cc(OC)c1OC
activity change, negative = inhibition [1]: inconclusive: 0.25%

COc1ccc(CNC(=O)Cc2csc(Nc3nc(=S)[nH]c4ccccc34)n2)cc1
activity change, negative = inhibition [1]: inactive

COc1ccccc1C(=O)Nc1c(C(=O)N(CCN(C)C)Cc2ccco2)oc2ccccc12
activity change, negative = inhibition [1]: inconclusive: -5.74%

O=C(ONC1=NCCCCC1)c1ccc(Cl)cc1
Potency [1]: inconclusive: 2.59 µM [falling, partial curve]

O=C1CC(c2ccncc2)c2cc3c(cc2N1)OCO3 (stereo unspecified)
activity change, negative = inhibition [1]: inconclusive: 15.7%

Cc1c(OC(C)C(=O)O)ccc2c(-c3ccccc3)cc(=O)oc12 (stereo unspecified)
activity change, negative = inhibition [1]: inconclusive: 4.07%

COc1ccnc(CSC(N)=Nc2cccc(C(F)(F)F)c2)c1
Potency [1]: inconclusive: 25.9 µM [cytotoxic, single point]

O=C(N/N=C/c1ccc[nH]1)c1ccc(O)cc1
Potency [1]: inconclusive: 5.62 µM [rising, partial curve]

CCCNC(=O)N(C)c1nncnc1C(=O)NC
activity change, negative = inhibition [1]: inconclusive: 4.65%

CC(=O)C1=C(C)NC(SCC(=O)c2ccc(Cl)cc2Cl)=C(C#N)C1c1ccco1 (stereo unspecified)
activity change, negative = inhibition [1]: inconclusive: -0.977%

CC(C(=O)N1CCc2ccccc21)N1CCc2ccccc2C1 (stereo unspecified)
activity change, negative = inhibition [1]: inactive

COc1ccc(CC(NC(C)=O)C(=O)NC2CCN(C(=O)c3ccccc3F)CC2)cc1 (stereo unspecified)
activity change, negative = inhibition [1]: inconclusive: -14.6%

c1ccc(Oc2nnc(-c3cccs3)c3ccccc23)cc1
activity change, negative = inhibition [1]: inconclusive: 3.72%

COC(=O)c1ccc(COC(=O)c2ccc(SC)cc2OC)cc1
Potency [1]: inconclusive: 18.4 µM [falling, single point]

CS(=O)(=O)Nc1cccc(S(=O)(=O)N2CCN(C(=O)c3ccccc3)CC2)c1
activity change, negative = inhibition [1]: inconclusive: 2.77%

CCCN(CCC)C(=O)CSc1nc2ccsc2c(=O)n1NC(=O)c1ccccc1
activity change, negative = inhibition [1]: inconclusive: 2.77%

Cc1ccc(NC(=O)CN2C(=O)C(C)Oc3ccccc32)nc1 (stereo unspecified)
activity change, negative = inhibition [1]: inconclusive: -0.372%

Cc1ccc(-c2noc(-c3ccccc3C(=O)N3CCCC3)n2)cc1
activity change, negative = inhibition [1]: inconclusive: 7.08%
